Measured values from article PMC11809420.
Results are given in words; binding and its absence hold for the method and conditions named. In cells and extracts the contact can be indirect. A yes stands for co-enrichment or nearness to the bait. Other partners may have been found. Each block holds one molecule with its values, some of them ahead of it.

Amino acid sequences for entries named in this document (tags omitted).
UniProt P35240: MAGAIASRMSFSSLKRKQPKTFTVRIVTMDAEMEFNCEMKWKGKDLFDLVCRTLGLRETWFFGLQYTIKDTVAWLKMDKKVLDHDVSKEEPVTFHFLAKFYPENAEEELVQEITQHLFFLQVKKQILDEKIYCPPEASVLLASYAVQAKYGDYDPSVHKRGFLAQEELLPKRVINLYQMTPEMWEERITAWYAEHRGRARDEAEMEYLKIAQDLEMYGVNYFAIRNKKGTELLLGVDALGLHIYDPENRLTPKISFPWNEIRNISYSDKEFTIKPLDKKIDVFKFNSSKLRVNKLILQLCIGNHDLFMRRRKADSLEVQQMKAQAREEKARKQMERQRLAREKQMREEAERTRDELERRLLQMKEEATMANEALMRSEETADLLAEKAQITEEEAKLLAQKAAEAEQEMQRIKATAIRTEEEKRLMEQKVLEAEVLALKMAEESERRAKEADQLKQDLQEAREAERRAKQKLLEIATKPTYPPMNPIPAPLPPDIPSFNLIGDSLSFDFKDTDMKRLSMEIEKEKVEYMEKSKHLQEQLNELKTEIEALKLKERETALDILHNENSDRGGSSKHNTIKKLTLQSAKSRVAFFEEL

Target: Kidney and brain protein (KIBRA), endogenous (human (endogenous in HCC1954, TOV-112D, HEK-293T)) (UniProt Q8IX03)
Test: affinity purification with mass spectrometry; HCC1954 cell lysates incubated with IgG or KIBRA (1:100) antibodies 1 h, protein G beads 2 h at 4 °C, LC-MS/MS

binding: binds
Molecule: Neurofibromin 2 (NF2), endogenous (from UniProt P35240 1-595)

binding: binds
B1: ZDHHC15, endogenous (enzyme, UniProt Q96MV8 1-337)
chain: MRRGWKMALSGGLRCCRRVLSWVPVLVIVLVVLWSYYAYVFELCLVTVLSPAEKVIYLILYHAIFVFFTWTYWKSIFTLPQQPNQKFHLSYTDKERYENEERPEVQKQMLVDMAKKLPVYTRTGSGAVRFCDRCHLIKPDRCHHCSVCAMCVLKMDHHCPWVNNCIGFSNYKFFLQFLAYSVLYCLYIATTVFSYFIKYWRGELPSVRSKFHVLFLLFVACMFFVSLVILFGYHCWLVSRNKTTLEAFCTPVFTSGPEKNGFNLGFIKNIQQVFGDKKKFWLIPIGSSPGDGHSFPMRSMNESQNPLLANEETWEDNEDDNQDYPEGSSSLAVETET
